Results are given in words; binding and its absence hold for the method and conditions named. In cells and extracts the contact can be indirect. Here binding means that the protein was enriched with, or labelled near, the bait; the list need not be complete. Where a sequence is shown, tags or fusion partners need not be part of it.

By UniProt entry, the sequences of proteins in these tests, tags left out.
UniProt Q86XN7: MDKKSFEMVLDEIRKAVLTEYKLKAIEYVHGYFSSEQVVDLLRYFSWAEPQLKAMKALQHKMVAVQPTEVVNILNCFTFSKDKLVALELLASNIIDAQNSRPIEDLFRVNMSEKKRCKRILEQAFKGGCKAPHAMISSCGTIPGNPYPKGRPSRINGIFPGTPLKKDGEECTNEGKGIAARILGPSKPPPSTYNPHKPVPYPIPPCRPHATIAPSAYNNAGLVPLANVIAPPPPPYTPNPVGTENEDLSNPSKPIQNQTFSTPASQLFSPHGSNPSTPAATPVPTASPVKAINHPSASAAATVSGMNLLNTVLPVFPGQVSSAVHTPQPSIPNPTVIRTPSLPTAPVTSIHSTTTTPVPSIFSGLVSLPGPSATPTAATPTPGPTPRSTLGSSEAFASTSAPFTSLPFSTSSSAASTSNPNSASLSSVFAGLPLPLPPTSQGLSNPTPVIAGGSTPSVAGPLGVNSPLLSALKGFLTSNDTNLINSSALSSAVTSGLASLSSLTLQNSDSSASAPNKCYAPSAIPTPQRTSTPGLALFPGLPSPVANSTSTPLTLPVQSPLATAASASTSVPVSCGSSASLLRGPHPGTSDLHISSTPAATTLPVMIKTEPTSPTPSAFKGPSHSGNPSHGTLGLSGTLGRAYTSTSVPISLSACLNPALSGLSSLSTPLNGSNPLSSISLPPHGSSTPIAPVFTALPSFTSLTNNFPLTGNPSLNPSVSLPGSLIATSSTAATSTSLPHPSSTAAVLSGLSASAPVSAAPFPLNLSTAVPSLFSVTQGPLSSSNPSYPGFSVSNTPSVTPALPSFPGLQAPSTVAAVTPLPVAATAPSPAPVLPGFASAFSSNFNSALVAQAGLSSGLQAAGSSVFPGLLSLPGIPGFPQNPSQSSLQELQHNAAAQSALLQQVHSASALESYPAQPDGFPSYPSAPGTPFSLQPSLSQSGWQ

The results in this text go back to paper PMC12447449.

This assay deals with FLAG-tagged full-length human TET2 (human) (UniProt Q6N021). The assay is described as follows: affinity purification with mass spectrometry; FLAG M2 immunoprecipitation and mass spectrometry from K562 cells overexpressing FLAG-tagged full-length human TET2, compared to wild-type K562 control; n = 3 biological replicates.

In the case of “Proline and serine rich 1 (PROSER1) (from UniProt Q86XN7 1-944)”, the binding result is “binds”.

B1: NONO (protein, UniProt Q15233 1-471)
chain: MQSNKTFNLEKQNHTPRKHHQHHHQQQHHQQQQQQPPPPPIPANGQQASSQNEGLTIDLKNFRKPGEKTFTQRSRLFVGNLPPDITEEEMRKLFEKYGKAGEVFIHKDKGFGFIRLETRTLAEIAKVELDNMPLRGKQLRVRFACHSASLTVRNLPQYVSNELLEEAFSVFGQVERAVVIVDDRGRPSGKGIVEFSGKPAARKALDRCSEGSFLLTTFPRPVTVEPMDQLDDEEGLPEKLVIKNQQFHKEREQPPRFAQPGSFEYEYAMRWKALIEMEKQQQDQVDRNIKEAREKLEMEMEAARHEHQVMLMRQDLMRRQEELRRMEELHNQEVQKRKQLELRQEEERRRREEEMRRQQEEMMRRQQEGFKGTFPDAREQEIRMGQMAMGGAMGINNRGAMPPAPVPAGTPAPPGPATMMPDGTLGLTPPTTERFGQAATMEGIGAIGGTPPAFNRAAPGAEFAPNKRRRY
As for B1, the binding result was “binds”.

B2: PSPC1 (protein, UniProt Q8WXF1 1-523)
chain: MMLRGNLKQVRIEKNPARLRALESAVGESEPAAAAAMALALAGEPAPPAPAPPEDHPDEEMGFTIDIKSFLKPGEKTYTQRCRLFVGNLPTDITEEDFKRLFERYGEPSEVFINRDRGFGFIRLESRTLAEIAKAELDGTILKSRPLRIRFATHGAALTVKNLSPVVSNELLEQAFSQFGPVEKAVVVVDDRGRATGKGFVEFAAKPPARKALERCGDGAFLLTTTPRPVIVEPMEQFDDEDGLPEKLMQKTQQYHKEREQPPRFAQPGTFEFEYASRWKALDEMEKQQREQVDRNIREAKEKLEAEMEAARHEHQLMLMRQDLMRRQEELRRLEELRNQELQKRKQIQLRHEEEHRRREEEMIRHREQEELRRQQEGFKPNYMENREQEMRMGDMGPRGAINMGDAFSPAPAGNQGPPPMMGMNMNNRATIPGPPMGPGPAMGPEGAANMGTPMMPDNGAVHNDRFPQGPPSQMGSPMGSRTGSETPQAPMSGVGPVSGGPGGFGRGSQGGNFEGPNKRRRY
B2: the binding result was “binds”.

B3: O-linked N-acetylglucosamine transferase (OGT) (enzyme, UniProt O15294 1-1046)
chain: MASSVGNVADSTEPTKRMLSFQGLAELAHREYQAGDFEAAERHCMQLWRQEPDNTGVLLLLSSIHFQCRRLDRSAHFSTLAIKQNPLLAEAYSNLGNVYKERGQLQEAIEHYRHALRLKPDFIDGYINLAAALVAAGDMEGAVQAYVSALQYNPDLYCVRSDLGNLLKALGRLEEAKACYLKAIETQPNFAVAWSNLGCVFNAQGEIWLAIHHFEKAVTLDPNFLDAYINLGNVLKEARIFDRAVAAYLRALSLSPNHAVVHGNLACVYYEQGLIDLAIDTYRRAIELQPHFPDAYCNLANALKEKGSVAEAEDCYNTALRLCPTHADSLNNLANIKREQGNIEEAVRLYRKALEVFPEFAAAHSNLASVLQQQGKLQEALMHYKEAIRISPTFADAYSNMGNTLKEMQDVQGALQCYTRAIQINPAFADAHSNLASIHKDSGNIPEAIASYRTALKLKPDFPDAYCNLAHCLQIVCDWTDYDERMKKLVSIVADQLEKNRLPSVHPHHSMLYPLSHGFRKAIAERHGNLCLDKINVLHKPPYEHPKDLKLSDGRLRVGYVSSDFGNHPTSHLMQSIPGMHNPDKFEVFCYALSPDDGTNFRVKVMAEANHFIDLSQIPCNGKAADRIHQDGIHILVNMNGYTKGARNELFALRPAPIQAMWLGYPGTSGALFMDYIITDQETSPAEVAEQYSEKLAYMPHTFFIGDHANMFPHLKKKAVIDFKSNGHIYDNRIVLNGIDLKAFLDSLPDVKIVKMKCPDGGDNADSSNTALNMPVIPMNTIAEAVIEMINRGQIQITINGFSISNGLATTQINNKAATGEEVPRTIIVTTRSQYGLPEDAIVYCNFNQLYKIDPSTLQMWANILKRVPNSVLWLLRFPAVGEPNIQQYAQNMGLPQNRIIFSPVAPKEEHVRRGQLADVCLDTPLCNGHTTGMDVLWAGTPMVTMPGETLASRVAASQLTCLGCLELIAKNRQEYEDIAVKLGTDLEYLKKVRGKVWKQRISSPLFNTKQYTMELERLYLQMWEHYAAGNKPDHMIKPVEVTESA
With B3, the binding result is “binds”.
